Measurements published in the supplement of paper PMC7666118.
The other results are listed elsewhere or left out.

Chains of the proteins cited; added tags and fusions are not shown. Lines headed by an entry give the natural chain unless they say otherwise; changes in a name come on top.
UniProt Q53HC9: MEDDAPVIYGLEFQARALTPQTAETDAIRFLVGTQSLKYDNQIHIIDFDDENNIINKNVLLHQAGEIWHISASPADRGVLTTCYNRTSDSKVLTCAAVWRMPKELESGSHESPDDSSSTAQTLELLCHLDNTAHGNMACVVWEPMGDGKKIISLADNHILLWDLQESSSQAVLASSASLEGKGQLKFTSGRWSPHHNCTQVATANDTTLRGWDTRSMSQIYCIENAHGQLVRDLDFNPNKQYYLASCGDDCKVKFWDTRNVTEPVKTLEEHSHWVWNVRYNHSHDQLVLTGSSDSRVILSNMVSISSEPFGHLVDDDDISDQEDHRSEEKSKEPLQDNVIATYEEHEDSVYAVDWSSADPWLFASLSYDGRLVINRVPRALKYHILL
UniProt Q15629: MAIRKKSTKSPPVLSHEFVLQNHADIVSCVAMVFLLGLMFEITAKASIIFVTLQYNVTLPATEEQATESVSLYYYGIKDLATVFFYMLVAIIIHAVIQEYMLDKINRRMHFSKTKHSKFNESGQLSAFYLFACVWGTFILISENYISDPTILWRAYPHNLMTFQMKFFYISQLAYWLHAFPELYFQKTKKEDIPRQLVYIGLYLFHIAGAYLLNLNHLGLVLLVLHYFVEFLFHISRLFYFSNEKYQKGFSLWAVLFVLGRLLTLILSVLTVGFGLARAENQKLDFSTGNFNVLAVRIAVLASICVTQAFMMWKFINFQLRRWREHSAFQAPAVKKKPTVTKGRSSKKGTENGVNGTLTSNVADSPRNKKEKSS
UniProt Q96J01: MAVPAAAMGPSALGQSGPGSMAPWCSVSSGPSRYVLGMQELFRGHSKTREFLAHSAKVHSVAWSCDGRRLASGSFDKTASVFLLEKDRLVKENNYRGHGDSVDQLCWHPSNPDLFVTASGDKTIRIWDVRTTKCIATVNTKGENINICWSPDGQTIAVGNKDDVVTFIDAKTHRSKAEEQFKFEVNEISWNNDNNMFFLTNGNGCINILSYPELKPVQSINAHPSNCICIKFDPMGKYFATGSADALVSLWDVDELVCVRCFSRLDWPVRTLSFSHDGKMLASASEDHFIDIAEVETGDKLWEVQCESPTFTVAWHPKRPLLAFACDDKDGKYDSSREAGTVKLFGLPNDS
UniProt Q9H3S4: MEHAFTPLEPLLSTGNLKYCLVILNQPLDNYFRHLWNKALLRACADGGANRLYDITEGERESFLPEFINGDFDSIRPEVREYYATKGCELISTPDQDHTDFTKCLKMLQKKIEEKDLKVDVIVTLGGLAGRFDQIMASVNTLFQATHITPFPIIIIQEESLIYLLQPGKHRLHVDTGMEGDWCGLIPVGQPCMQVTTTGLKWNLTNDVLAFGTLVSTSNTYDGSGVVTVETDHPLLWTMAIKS
UniProt Q15388, whole entry: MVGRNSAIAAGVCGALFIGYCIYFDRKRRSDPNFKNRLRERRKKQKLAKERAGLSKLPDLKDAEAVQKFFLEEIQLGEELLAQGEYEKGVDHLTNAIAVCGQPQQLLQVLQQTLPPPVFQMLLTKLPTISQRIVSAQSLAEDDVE
UniProt Q99614: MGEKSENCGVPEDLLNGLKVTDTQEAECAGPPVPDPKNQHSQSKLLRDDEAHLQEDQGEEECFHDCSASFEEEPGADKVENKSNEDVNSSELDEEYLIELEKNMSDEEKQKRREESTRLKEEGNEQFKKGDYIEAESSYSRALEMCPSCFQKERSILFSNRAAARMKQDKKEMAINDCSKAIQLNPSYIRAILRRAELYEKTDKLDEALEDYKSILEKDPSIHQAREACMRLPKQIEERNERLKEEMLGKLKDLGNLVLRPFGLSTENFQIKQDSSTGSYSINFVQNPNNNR
UniProt Q969M1: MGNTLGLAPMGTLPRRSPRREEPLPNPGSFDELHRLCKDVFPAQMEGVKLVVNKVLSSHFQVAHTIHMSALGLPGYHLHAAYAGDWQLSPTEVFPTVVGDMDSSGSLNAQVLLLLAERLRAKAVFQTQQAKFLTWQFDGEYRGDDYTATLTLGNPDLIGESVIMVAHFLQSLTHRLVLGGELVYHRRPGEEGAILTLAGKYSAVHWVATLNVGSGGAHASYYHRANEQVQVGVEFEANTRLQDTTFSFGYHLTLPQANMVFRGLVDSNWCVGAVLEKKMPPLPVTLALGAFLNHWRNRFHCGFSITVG
UniProt P29144: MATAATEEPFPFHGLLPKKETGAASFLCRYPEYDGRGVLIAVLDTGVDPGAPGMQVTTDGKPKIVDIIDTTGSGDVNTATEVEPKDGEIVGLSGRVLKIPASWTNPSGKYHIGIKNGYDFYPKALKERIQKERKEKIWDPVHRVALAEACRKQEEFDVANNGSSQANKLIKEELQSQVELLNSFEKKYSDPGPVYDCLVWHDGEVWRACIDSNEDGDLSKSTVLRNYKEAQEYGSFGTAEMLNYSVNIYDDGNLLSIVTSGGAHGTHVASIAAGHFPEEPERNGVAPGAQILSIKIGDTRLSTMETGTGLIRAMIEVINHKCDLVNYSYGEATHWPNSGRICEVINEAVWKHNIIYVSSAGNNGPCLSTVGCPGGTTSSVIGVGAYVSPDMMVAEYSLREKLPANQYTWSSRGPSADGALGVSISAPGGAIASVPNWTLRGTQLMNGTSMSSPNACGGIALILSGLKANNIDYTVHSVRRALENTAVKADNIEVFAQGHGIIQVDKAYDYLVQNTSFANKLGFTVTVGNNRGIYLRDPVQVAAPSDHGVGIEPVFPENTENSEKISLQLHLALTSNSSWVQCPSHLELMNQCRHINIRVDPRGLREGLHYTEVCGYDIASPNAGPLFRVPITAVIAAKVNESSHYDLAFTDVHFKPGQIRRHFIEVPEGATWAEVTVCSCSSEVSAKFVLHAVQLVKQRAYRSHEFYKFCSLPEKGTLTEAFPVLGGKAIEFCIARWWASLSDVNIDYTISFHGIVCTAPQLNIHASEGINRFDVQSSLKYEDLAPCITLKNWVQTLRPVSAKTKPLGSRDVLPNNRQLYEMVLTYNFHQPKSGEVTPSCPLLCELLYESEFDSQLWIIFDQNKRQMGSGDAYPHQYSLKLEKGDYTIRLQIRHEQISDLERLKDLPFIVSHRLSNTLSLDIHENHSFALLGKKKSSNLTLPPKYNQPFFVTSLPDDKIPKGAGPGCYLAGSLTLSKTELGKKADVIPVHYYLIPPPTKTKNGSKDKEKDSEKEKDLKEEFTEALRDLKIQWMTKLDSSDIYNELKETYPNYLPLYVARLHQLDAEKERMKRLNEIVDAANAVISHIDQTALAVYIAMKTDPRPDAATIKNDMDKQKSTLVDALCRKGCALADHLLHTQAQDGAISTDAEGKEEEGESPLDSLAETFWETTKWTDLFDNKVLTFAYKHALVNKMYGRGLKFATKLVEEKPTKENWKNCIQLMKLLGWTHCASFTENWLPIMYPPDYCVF
UniProt Q8N511: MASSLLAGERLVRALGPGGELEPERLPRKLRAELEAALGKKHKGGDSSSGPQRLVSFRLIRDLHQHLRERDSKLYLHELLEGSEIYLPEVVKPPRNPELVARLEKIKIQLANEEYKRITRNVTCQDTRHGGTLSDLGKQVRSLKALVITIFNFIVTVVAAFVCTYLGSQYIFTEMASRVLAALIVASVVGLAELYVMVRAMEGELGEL
UniProt Q9H3H1: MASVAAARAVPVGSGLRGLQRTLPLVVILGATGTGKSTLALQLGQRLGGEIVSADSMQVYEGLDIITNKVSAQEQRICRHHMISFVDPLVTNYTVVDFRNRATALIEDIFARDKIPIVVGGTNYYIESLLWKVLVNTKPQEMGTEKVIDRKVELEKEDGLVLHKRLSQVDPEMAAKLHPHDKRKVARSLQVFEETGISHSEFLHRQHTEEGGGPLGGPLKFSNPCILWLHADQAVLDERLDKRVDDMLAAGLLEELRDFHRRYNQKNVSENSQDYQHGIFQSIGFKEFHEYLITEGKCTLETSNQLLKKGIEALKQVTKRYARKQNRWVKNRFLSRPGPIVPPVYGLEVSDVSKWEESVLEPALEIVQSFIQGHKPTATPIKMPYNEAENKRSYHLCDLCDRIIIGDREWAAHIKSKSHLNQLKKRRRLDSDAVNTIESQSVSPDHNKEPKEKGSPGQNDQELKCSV
UniProt Q9NS69: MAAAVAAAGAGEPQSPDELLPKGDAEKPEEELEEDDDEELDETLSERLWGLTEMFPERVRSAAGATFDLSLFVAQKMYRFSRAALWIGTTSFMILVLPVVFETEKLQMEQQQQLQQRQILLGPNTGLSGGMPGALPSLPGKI
UniProt Q9H6X4: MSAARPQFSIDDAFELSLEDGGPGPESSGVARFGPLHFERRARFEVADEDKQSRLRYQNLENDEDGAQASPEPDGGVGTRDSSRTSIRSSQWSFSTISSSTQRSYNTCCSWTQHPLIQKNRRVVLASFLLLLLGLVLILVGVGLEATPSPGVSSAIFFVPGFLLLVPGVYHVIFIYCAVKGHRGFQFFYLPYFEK
UniProt O60220: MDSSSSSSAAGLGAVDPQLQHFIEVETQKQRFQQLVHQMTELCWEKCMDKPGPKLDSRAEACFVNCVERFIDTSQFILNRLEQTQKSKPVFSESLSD
UniProt Q12931: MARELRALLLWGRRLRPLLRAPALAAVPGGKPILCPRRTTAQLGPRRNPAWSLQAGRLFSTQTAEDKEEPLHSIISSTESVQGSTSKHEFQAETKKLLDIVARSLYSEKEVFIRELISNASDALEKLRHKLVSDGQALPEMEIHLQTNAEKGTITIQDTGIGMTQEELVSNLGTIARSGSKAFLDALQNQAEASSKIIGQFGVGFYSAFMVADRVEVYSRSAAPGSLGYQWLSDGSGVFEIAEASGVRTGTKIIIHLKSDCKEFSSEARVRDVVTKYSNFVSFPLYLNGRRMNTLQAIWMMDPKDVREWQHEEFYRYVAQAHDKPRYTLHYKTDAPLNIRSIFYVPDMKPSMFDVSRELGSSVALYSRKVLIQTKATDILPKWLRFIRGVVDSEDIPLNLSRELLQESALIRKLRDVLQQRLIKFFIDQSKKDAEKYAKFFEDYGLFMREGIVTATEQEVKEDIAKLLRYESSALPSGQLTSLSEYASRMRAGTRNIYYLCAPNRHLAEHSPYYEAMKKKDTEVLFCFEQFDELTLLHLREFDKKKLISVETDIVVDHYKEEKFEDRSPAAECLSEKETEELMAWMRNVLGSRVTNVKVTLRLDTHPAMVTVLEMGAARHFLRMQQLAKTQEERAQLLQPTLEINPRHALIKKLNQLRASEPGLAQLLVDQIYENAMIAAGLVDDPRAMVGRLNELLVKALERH
UniProt Q9BVT8: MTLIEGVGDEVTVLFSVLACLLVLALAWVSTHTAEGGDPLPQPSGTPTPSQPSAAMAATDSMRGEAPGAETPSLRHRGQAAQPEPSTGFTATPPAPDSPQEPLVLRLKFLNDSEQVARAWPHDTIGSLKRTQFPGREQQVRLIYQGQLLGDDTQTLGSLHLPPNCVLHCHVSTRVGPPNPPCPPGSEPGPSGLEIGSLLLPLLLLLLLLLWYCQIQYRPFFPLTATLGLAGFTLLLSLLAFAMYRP
UniProt Q9BVK6: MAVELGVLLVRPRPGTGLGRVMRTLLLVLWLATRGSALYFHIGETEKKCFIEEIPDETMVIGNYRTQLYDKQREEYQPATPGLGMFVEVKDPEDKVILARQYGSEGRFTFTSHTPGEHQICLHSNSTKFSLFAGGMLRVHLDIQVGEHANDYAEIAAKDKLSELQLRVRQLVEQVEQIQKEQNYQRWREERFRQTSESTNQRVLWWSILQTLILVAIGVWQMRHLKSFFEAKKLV
UniProt Q6PJ69: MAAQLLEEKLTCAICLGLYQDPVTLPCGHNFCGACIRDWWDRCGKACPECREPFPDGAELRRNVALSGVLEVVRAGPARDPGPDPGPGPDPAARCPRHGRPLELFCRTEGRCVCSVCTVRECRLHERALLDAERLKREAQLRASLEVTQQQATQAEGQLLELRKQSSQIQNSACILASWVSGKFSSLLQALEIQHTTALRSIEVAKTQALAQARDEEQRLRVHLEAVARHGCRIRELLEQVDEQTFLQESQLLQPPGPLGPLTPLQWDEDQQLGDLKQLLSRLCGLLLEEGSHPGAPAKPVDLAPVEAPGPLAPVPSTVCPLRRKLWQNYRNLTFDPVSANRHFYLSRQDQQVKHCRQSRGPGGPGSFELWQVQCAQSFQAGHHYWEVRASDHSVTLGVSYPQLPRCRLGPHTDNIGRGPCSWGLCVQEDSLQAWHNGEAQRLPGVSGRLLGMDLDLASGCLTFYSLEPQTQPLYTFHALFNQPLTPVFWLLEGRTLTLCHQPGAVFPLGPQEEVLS
UniProt P49755: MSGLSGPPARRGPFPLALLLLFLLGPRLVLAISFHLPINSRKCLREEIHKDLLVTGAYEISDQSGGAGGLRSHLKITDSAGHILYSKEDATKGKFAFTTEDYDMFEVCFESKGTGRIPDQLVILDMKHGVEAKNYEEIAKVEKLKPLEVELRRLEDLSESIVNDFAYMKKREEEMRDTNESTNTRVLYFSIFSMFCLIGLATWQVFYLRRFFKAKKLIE
UniProt P13693: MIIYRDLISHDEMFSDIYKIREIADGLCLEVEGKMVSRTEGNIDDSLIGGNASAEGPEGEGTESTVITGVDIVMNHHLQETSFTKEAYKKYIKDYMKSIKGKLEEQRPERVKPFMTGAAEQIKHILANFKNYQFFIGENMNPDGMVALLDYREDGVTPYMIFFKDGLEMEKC

Compound: COc1ccc(Cn2ccc3cc(C)c(C(=O)NO)cc32)cc1
Experiment: dose-dependent thermal stabilisation call (2D-TPP, DLPTP, 10% FDR) (binary (1 = stabilised)); higher = stabilised by the compound
Conditions: system: HL-60 intact cells; concentration range 0.04-10 µM
Description: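 2D thermal proteome profiling in intact HL-60 cells treated with BRD-3811 (0, 0.04, 0.29, 2, 10 uM) for 90 min at 37 C, then heated 3 min at one of 12 temperatures (42-63.9 C). Soluble protein was quantified by TMT10 MS. The value is the DLPTP call of the paper: dose-dependent thermal stabilisation over all temperatures at 10% FDR (F-test of a dose-response against a flat model); one experiment, one call per tested protein.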

Target	dose-dependent thermal stabilisation call
TSSC1 (UniProt Q53HC9)	inactive: 0
THG1L (UniProt Q9NWX6)	inactive: 0
TRAM1 (UniProt Q15629)	inactive: 0
THOC3 (UniProt Q96J01)	inactive: 0
TPK1 (UniProt Q9H3S4)	inactive: 0
TP53BP1 (UniProt Q12888)	inactive: 0
TIMM8B (UniProt Q9Y5J9)	inactive: 0
TNIP1 (UniProt Q15025)	inactive: 0
TOMM20 (UniProt Q15388)	inactive: 0
TTC1 (UniProt Q99614)	inactive: 0
TNFRSF10A (UniProt O00220)	inactive: 0
THOC7 (UniProt Q6I9Y2)	inactive: 0
TOMM40L (UniProt Q969M1)	inactive: 0
TTC19 (UniProt Q6DKK2)	inactive: 0
TPP2 (UniProt P29144)	inactive: 0
TPRKB (UniProt Q9Y3C4)	inactive: 0
TMEM199 (UniProt Q8N511)	inactive: 0
TMEM175 (UniProt Q9BSA9)	inactive: 0

Looked up above:
TIMM8B (UniProt Q9Y5J9) | dose-dependent thermal stabilisation call: inactive: 0
TPK1 (UniProt Q9H3S4) | dose-dependent thermal stabilisation call: inactive: 0

More entries follow.

Target	dose-dependent thermal stabilisation call
TRIT1 (UniProt Q9H3H1)	inactive: 0
TOMM22 (UniProt Q9NS69)	inactive: 0
TROVE2 (UniProt P10155)	inactive: 0
TRAPPC2L (UniProt Q9UL33)	inactive: 0
TMEM134 (UniProt Q9H6X4)	inactive: 0
TMEM11 (UniProt P17152)	inactive: 0
TIMM8A (UniProt O60220)	inactive: 0
TRAP1 (UniProt Q12931)	inactive: 0
TRA2A (UniProt Q13595)	inactive: 0
TMUB1 (UniProt Q9BVT8)	inactive: 0
TMED9 (UniProt Q9BVK6)	inactive: 0
TOR1AIP2	inactive: 0
TRIM65 (UniProt Q6PJ69)	inactive: 0
TMED10 (UniProt P49755)	inactive: 0
TOM1 (UniProt O60784)	inactive: 0
TPT1 (UniProt P13693)	inactive: 0
TMEM65 (UniProt Q6PI78)	inactive: 0
TRAF2 (UniProt Q12933)	inactive: 0
